The list shows a part of the results.
Target: T1, OsSMF1 (Oryza sativa, UniProt Q6ZLB0 1-436)
T1 sequence: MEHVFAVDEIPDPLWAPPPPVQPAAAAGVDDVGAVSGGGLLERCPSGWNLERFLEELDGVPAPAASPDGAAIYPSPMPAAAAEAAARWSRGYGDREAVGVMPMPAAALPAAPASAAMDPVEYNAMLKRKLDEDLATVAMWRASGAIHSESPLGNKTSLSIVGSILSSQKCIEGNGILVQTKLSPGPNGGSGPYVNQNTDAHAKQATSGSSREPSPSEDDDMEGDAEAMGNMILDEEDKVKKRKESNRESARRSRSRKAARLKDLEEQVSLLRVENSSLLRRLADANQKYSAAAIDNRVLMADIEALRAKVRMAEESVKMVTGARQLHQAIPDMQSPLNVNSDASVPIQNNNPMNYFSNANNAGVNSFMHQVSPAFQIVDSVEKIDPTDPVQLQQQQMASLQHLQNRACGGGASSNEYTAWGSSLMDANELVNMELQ
Experiment: protein-binding microarray (RPBM); PBS, 2% BSA, 51.3 ng/ul salmon testes DNA, 50 uM zinc acetate, 200 nM TF, 25 C, 1 h; high values mean tight binding
Conditions: protein: recombinant; tags: N-terminal polyhistidine and DsRed monomer fusion (pET32a); chain copies: 2; label: CyDye5-dUTP incorporated in the synthesized complementary strand; 3' TTTTT single-stranded linker to array surface; dsDNA, one strand shown
Outline: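 The binding signal is fluorescence intensity per array feature (arbitrary units). Readings came from an Axon 4000B scanner after a washed, 2% BSA-blocked, double-stranded custom Agilent array had been incubated for 1 h at 25 °C with 200 nM protein and 50 µM zinc acetate. The protein was a Ni–NTA-purified transcription factor fused N-terminally to polyhistidine and DsRed, expressed in E. coli BL21-CodonPlus.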

Sequence	binding signal
AAATTCACGAAATCAACATACCACGTCATAGGGTTAACAACGGAGTCACCTAGTGCAG	13500 fluorescence intensity (a.u.)
TGATTAATTCTGGTAGTTGTAGATGCTGATATACACACACCGGAGTCACCTAGTGCAG	3140 fluorescence intensity (a.u.)
ACCATCCGAATTCCACGTCTGCCGGTGTGGTGGCGTTAAACGGAGTCACCTAGTGCAG	4230 fluorescence intensity (a.u.)
AATACTCCCTCCATTTCGAAATGTTTGACACCGTTAACTTCGGAGTCACCTAGTGCAG	3260 fluorescence intensity (a.u.)
TCCGGGATCAAATTGTCACGTAAACGCCACGTGGGATGACCGGAGTCACCTAGTGCAG	18400 fluorescence intensity (a.u.)
CGTGGGTCCACGCTGACTTAGCCTCCACGTAGGACAATACCGGAGTCACCTAGTGCAG	7240 fluorescence intensity (a.u.)
TTATCGTATGTGTGATATGAGATGGACACACGCGTGGCGGCGGAGTCACCTAGTGCAG	3980 fluorescence intensity (a.u.)
GAGCTAGGACCCTCCGTGGTGGGGTGGCAGATTCACCACCCGGAGTCACCTAGTGCAG	3190 fluorescence intensity (a.u.)
CCCGTCTGCTACTCTGCCGTGTTGGCCGCCGCGCCCACCTCGGAGTCACCTAGTGCAG	3230 fluorescence intensity (a.u.)
AAAATTGTTGCGTGACTGAATGGAGATTTCAGATTTCTGCCGGAGTCACCTAGTGCAG	5430 fluorescence intensity (a.u.)
CCCAGCATGACACGTGTCTAACTCGACCAGTCTCCTACTCCGGAGTCACCTAGTGCAG	13500 fluorescence intensity (a.u.)
TCACGTTATTCGTTTGACGTGGCAAAACAATACTGTCGGTCGGAGTCACCTAGTGCAG	10400 fluorescence intensity (a.u.)
GAATCTCCGTCCTCCACCTTCGCCGCTCGCCCCTCTCTCTCGGAGTCACCTAGTGCAG	3520 fluorescence intensity (a.u.)
CGTGGATGGAGAAGAGGCGGCCGCCGCGGCGGCTGCTTGGCGGAGTCACCTAGTGCAG	4800 fluorescence intensity (a.u.)
ATATATCCCGTGCATACCCATATACGTGGCACCATCTGACCGGAGTCACCTAGTGCAG	12600 fluorescence intensity (a.u.)
AAATTTAGGGGTTGTTTGGTTGGTGACCACATGTTGTCACCGGAGTCACCTAGTGCAG	5500 fluorescence intensity (a.u.)
TCTATAAGCTCTCTATAAGAGATCCATGTCAGCATATTTTCGGAGTCACCTAGTGCAG	8150 fluorescence intensity (a.u.)
TCGCGCGCACGCAAACGCAAGCCATTACGTAACCACGGCTCGGAGTCACCTAGTGCAG	3980 fluorescence intensity (a.u.)
CGGCATCGGCCGCGCCATGGCGTTCCGCCTCGCCGCCTCGCGGAGTCACCTAGTGCAG	3290 fluorescence intensity (a.u.)
GTTGTACTTTTAAACTTGCTCTATGACATCACGATCAGAGCGGAGTCACCTAGTGCAG	5160 fluorescence intensity (a.u.)
GAGGAAGAACCTTACGCTCAAACGAAACGGAACCAGTAGGCGGAGTCACCTAGTGCAG	55100 fluorescence intensity (a.u.)

Sequence	binding signal
TTGCCTCTCCTCTACACAACACCGCGACTCTATCGGTATACGGAGTCACCTAGTGCAG	3170 fluorescence intensity (a.u.)
ACTTGATTTGAACGTTTTGCATATGTACGTAGTACGTGTACGGAGTCACCTAGTGCAG	3200 fluorescence intensity (a.u.)
CAAAAGATAGGGATTGTCACGGGGAGACACCCACATAAAACGGAGTCACCTAGTGCAG	30500 fluorescence intensity (a.u.)
TGGTTTTGAAGGCGGTTTTGGTTGACGTGGCGCCTACATGCGGAGTCACCTAGTGCAG	23700 fluorescence intensity (a.u.)
ACGGAGGGAGGGGCTGTTCAGATTGATGTCATTTTCAACCCGGAGTCACCTAGTGCAG	3880 fluorescence intensity (a.u.)
TTCTGATGACTAGTATGAGACGTGAATGCCAACGCTCTCACGGAGTCACCTAGTGCAG	3380 fluorescence intensity (a.u.)
CTTGATCTTCTCCCACTCCTTCCAATCTCCTCTCTTTTCTCGGAGTCACCTAGTGCAG	3220 fluorescence intensity (a.u.)
CTTTTCATCCATCCCAACATCTTGCACATGCATGGAGAGTCGGAGTCACCTAGTGCAG	4280 fluorescence intensity (a.u.)
GAATATATGGACATGTCTGTTAAGCTATCCTAAACGAACGCGGAGTCACCTAGTGCAG	3890 fluorescence intensity (a.u.)
GTCGCCACGTCTGGAGGTCATGTTCCCCACTTCGGTGCTGCGGAGTCACCTAGTGCAG	5680 fluorescence intensity (a.u.)
CGTGCCCTCCTCTTCCTCCCACTCCTCCTCATCTGCCCTCCGGAGTCACCTAGTGCAG	27300 fluorescence intensity (a.u.)
AACAATAACAAGATTAAAATAAACTTCACACGTTGTAATGCGGAGTCACCTAGTGCAG	3160 fluorescence intensity (a.u.)
AAACAAAATAGCATAATCACTCACCGCGTCACACAGCGGGCGGAGTCACCTAGTGCAG	3720 fluorescence intensity (a.u.)
TCCTCTGATCGGCCTCTCTCGCACATTGCTTAATTAGCTACGGAGTCACCTAGTGCAG	3170 fluorescence intensity (a.u.)
GACTCTGCAACACACGGTGCCCGCGCGTTCGCTACGTGTGCGGAGTCACCTAGTGCAG	3530 fluorescence intensity (a.u.)
GTGCATGGGCGGTCATTAAATTTATAGGGATGTGTCATCTCGGAGTCACCTAGTGCAG	3590 fluorescence intensity (a.u.)
TGGAGAAATATCCAGTTTTACATCTTCACCGTAATATGCGCGGAGTCACCTAGTGCAG	24600 fluorescence intensity (a.u.)
ATATCCGGCTCACCGGTCCACGTGGACCGTGATCTCCCTTCGGAGTCACCTAGTGCAG	11900 fluorescence intensity (a.u.)
TCATAGTGATGCACTTGATATAACACATCATTATCAATCTCGGAGTCACCTAGTGCAG	4200 fluorescence intensity (a.u.)
TTTAGACCACAAACCAAACCAGCCCATAGTAACAAATCTACGGAGTCACCTAGTGCAG	3410 fluorescence intensity (a.u.)
GGGTGGCAGTGGCGCCGAGGACGCACGCCACGTGTTTGACCGGAGTCACCTAGTGCAG	7490 fluorescence intensity (a.u.)

Copied from above for reference:
Sequence	binding signal
GACTCTGCAACACACGGTGCCCGCGCGTTCGCTACGTGTGCGGAGTCACCTAGTGCAG	3530 fluorescence intensity (a.u.)
GTGCATGGGCGGTCATTAAATTTATAGGGATGTGTCATCTCGGAGTCACCTAGTGCAG	3590 fluorescence intensity (a.u.)
